Measured values as given in PMC6914705.
These are yes or no findings as the source states them, for the method shown. Binding seen in cells or lysates may run through a third protein. Some entries that bind do so weakly or less than the wild type.

Target: Cullin-1 (HEK 293 cells) (human (endogenous in HEK 293)) (UniProt Q13616)
Assay: co-IP; HEK 293 cells transfected with pcDNA3.1(+)steA or empty plasmid (36 h), TNFα for 30 min, whole-cell lysates immunoprecipitated with anti-Cullin-1 antibody, HA-tagged SteA detected with anti-HA antibody

HA-tagged SteA (from UniProt Q8ZPD7 1-210)
binding: binds
